Data as given in PubChem BioAssay AID1224828 (NIAID, 2016)

- Aim: 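Find genes required for NF-kappaB p65 moving into the nucleus after LPS in mouse macrophages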 (primary screen)
- Cell system: mouse RAW264.7 G9 macrophage reporter cells (GFP-p65, Tnf promoter-mCherry)
- Knock-down reagent: siRNA pool against mouse genes, 100 nM
- Duration: 2 days siRNA transfection, then 40 min LPS before fixation
- Treatment: LPS (Salmonella minnesota R595) at 10 ng/ml
- Read-out: 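Imaged p65 nuclear translocation ratio, normalised to the plate median, converted to robust z-scores and averaged across two replicates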
- Scale: p65 translocation robust z-score: higher = more nuclear NF-kappaB p65 after LPS than the plate median; nuclear/cytoplasmic p65 ratio: higher = more nuclear NF-kappaB p65
- Hit rule: 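Called active when z exceeds 3.3 or falls under -1.56 (median of Tlr4 controls), giving activity score of at least 50; no calls for control wells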
- Calls: active = hit (p65 shift raised or lowered); inactive = no clear change
Here is a random part of about 17,000 reagents tested. 762 of all reagents (4.5%) count as active. 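Active calls include both raised and lowered p65 entry, mostly lowered; wells with fewer than 50 cells lack a z-score.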 Raw values are not corrected between plates. Reagent sequences are not shown.

no.	target	p65 translocation robust z-score	nuclear/cytoplasmic p65 ratio, rep 1	nuclear/cytoplasmic p65 ratio, rep 2	low cell count flag	Outcome
1	AY358078 (cDNA sequence AY358078)	-0.51	1.62	1.48	enough cells to score	inactive
2	Pcbp3 (poly(rC) binding protein 3)		1.31	1.15	fewer than 50 cells per well; well left out of scoring	inactive
3	Atxn10 (ataxin 10)	0.52	1.49	1.28	enough cells to score	inactive
4	Chrna1 (cholinergic receptor nicotinic alpha 1 subunit)	0.34	1.52	1.41	enough cells to score	inactive
5	Ccdc28a (coiled-coil domain containing 28A)	-0.89	1.2	1.38	enough cells to score	inactive
6	Sts (steroid sulfatase)	-1.59	1.15	1.1	enough cells to score	active
7	Zmynd8 (zinc finger, MYND-type containing 8)	0.48	1.82	1.56	enough cells to score	inactive
8	Spart (spartin)	0.12	1.49	1.65	enough cells to score	inactive
9	Wfs1 (wolframin ER transmembrane glycoprotein)	-0.21	1.55	1.51	enough cells to score	inactive
10	Evi2a (ecotropic viral integration site 2a)	-0.69	1.47	1.57	enough cells to score	inactive
11	Ptafr (platelet-activating factor receptor)	-0.08	1.43	1.65	enough cells to score	inactive
12	Or4a47 (olfactory receptor family 4 subfamily A member 47)	0.1	1.62	1.44	enough cells to score	inactive
13	Dph2 (DPH2 homolog)	0.56	1.54	1.43	enough cells to score	inactive
14	Tlr3 (toll-like receptor 3)		1.52	1.43	fewer than 50 cells per well; well left out of scoring	inactive

In a second layout: entries from further up.
Spart (spartin)
- p65 translocation robust z-score: 0.12
- nuclear/cytoplasmic p65 ratio, rep 1: 1.49
- nuclear/cytoplasmic p65 ratio, rep 2: 1.65
- low cell count flag: enough cells to score
- Outcome: inactive

Wfs1 (wolframin ER transmembrane glycoprotein)
- p65 translocation robust z-score: -0.21
- nuclear/cytoplasmic p65 ratio, rep 1: 1.55
- nuclear/cytoplasmic p65 ratio, rep 2: 1.51
- low cell count flag: enough cells to score
- Outcome: inactive

Evi2a (ecotropic viral integration site 2a)
- p65 translocation robust z-score: -0.69
- nuclear/cytoplasmic p65 ratio, rep 1: 1.47
- nuclear/cytoplasmic p65 ratio, rep 2: 1.57
- low cell count flag: enough cells to score
- Outcome: inactive

The list goes on.
no.	target	p65 translocation robust z-score	nuclear/cytoplasmic p65 ratio, rep 1	nuclear/cytoplasmic p65 ratio, rep 2	low cell count flag	Outcome
15	Wac (WW domain containing adaptor with coiled-coil)	0.77	1.47	1.33	enough cells to score	inactive
16	Irx3 (Iroquois related homeobox 3)	-2.28	1.24	1.11	enough cells to score	active
17	Magea1 (MAGE family member A1)	-2.86	1.37	1.13	enough cells to score	active
18	Creg2 (cellular repressor of E1A-stimulated genes 2)	0.98	1.69	1.98	enough cells to score	inactive
19	Yipf3 (Yip1 domain family, member 3)	-0.67	1.45	1.59	enough cells to score	inactive
20	Washc2 (WASH complex subunit 2)	-0.69	1.45	1.46	enough cells to score	inactive
21	Wdhd1 (WD repeat and HMG-box DNA binding protein 1)	-0.28	1.5	1.54	enough cells to score	inactive
22	Rgma (repulsive guidance molecule family member A)	-0.47	1.33	1.19	enough cells to score	inactive
23	Gzmn (granzyme N)	0.04	1.53	1.56	enough cells to score	inactive
24	Tmem154 (transmembrane protein 154)	-0.63	1.37	1.46	enough cells to score	inactive
